In PMC6561935, “Hsp90 middle domain phosphorylation initiates a complex conformational program to recruit the ATPase-stimulating cochaperone Aha1” (Nature Communications, 2019) one finds binding data, which are given here for ten substances.

Assay [1] has as its target FLAG-tagged Aha1-N (human) (UniProt O95433). Nature of the assay: co-IP; FLAG-Aha1 (wild type, point mutants or single domains) co-expressed with HA-Hsp90 (wild type or mutants); anti-FLAG resin; Hsp90 detected with anti-HA; lysis and wash buffer with or without 10 mM molybdate where indicated.
Assay [2] deals with FLAG-tagged Aha1-C (human) (UniProt O95433). The assay is described as above.
In assay [3] the target is FLAG-tagged Aha1, wild-type, full length (human) (UniProt O95433). Described as above.
In assay [4] the target is FLAG-tagged Hsp90 (human Hsp90α), wild-type (human) (UniProt P07900). The assay can be described thus: co-IP; FLAG-Hsp90 (wild type or mutants) expressed in 293A or HEK293 cells and precipitated with M2 anti-FLAG resin; co-precipitated endogenous Aha1, p23 and p60Hop detected by western blot; Hepes buffer pH 7.2, 100 mM NaCl, 1 mM MgCl2, 0.5% Nonidet P40, 4 °C. For orientation: A western blot detects proteins with antibodies after separation by electrophoresis.

The target of assay [5] is FLAG-tagged Hsp90-E47A (human) (UniProt P07900). The description is as above.
Assay [6] deals with FLAG-tagged Hsp90-Y313E (human) (UniProt P07900). Described as above.
Assay [7] addresses FLAG-tagged Hsp90-R400A (human) (UniProt P07900). The description is as above.
The target of assay [8] is FLAG-tagged Hsp90-E47A/H210A/Y313E (human) (UniProt P07900). The assay is described as above.
The target of assay [9] is FLAG-tagged Hsp90-E47A/Y313E (human) (UniProt P07900). The assay is described as above.
The target of assay [10] is FLAG-tagged Hsp90-H210A/Y313E (human) (UniProt P07900). Described as above.
Assay [11] concerns the target FLAG-tagged Hsp90-R400A/Y313E (human) (UniProt P07900). The assay is described as above.
In assay [12] the target is heterodimer wild-type Hsp90/Hsp90-Y313E (human) (UniProt P07900). Nature of the assay: co-IP; two-round (sequential) immunoprecipitation from 293A cells co-expressing HA- and FLAG-tagged Hsp90: anti-HA resin, elution with HA peptide, then anti-FLAG resin; co-precipitated endogenous Aha1 detected by western blot.
Assay [13] has as its target Hsp90 dimer with W320A in the protomer opposite to the one harboring Y313E (human) (UniProt P07900). The assay is described as above.
The target of assay [14] is FLAG-tagged Aha1-K208A/K212A (full-length) (human) (UniProt O95433). The assay can be described thus: co-IP; FLAG-Aha1 (wild type or point mutants) expressed in 293A cells and precipitated with anti-FLAG resin; co-precipitated endogenous Hsp90 detected by western blot; Hepes buffer pH 7.2, 100 mM NaCl, 1 mM MgCl2, 0.5% Nonidet P40, 4 °C.
Assay [15] addresses FLAG-tagged Aha1-E260A/D263A (full-length) (human) (UniProt O95433). The description is as above.
The target of assay [16] is FLAG-tagged Aha1, wild-type, full length (human) (UniProt O95433). The assay is described as above.
For assay [17], the target named is FLAG-tagged Aha1-K273A (full-length) (human) (UniProt O95433). The assay is described as above.
The target in assay [18] is purified human Hsp90α-Y313E (human) (UniProt P07900). Nature of the assay: NMR titration; 1H-13C HMQC (methyl-TROSY) of 2H/13C Ile-labelled Hsp90 with 2H-labelled Aha1 construct at half the Hsp90 concentration; 25 °C; 20 mM deuterated Tris pH 7.5, 100 mM NaCl, 0.5 mM EDTA, 1.5 mM DTT, 100% D2O; both purified.
Assay [19] has as its target purified human Hsp90α, wild-type (human) (UniProt P07900). Described as above.
Assay [20] has as its target purified human Hsp90α-Y313E (human) (UniProt P07900). The assay can be described thus: ITC; Supplementary Table 3, without AMPPNP: Hsp90 30 μM in the cell, Aha1 constructs 380-450 μM in the syringe; 36 °C; 20 mM Tris pH 7.5, 100 mM NaCl, 0.5 mM EDTA, 5 mM MgSO4, 1 mM TCEP; both purified. On the technique in general: Isothermal titration calorimetry measures the heat released or taken up as one component is titrated into another.

Assay [21] has as its target purified human Hsp90α, wild-type (human) (UniProt P07900). The description is as above.
Assay [22] has the same target. Nature of the assay: ITC; Supplementary Table 3, with 2 mM AMPPNP in cell and syringe: Hsp90 30 μM in the cell, Aha1 constructs 380-450 μM in the syringe; 36 °C; 20 mM Tris pH 7.5, 100 mM NaCl, 0.5 mM EDTA, 5 mM MgSO4, 1 mM TCEP; both purified.
Assay [23] concerns the target purified human Hsp90α-Y313E (human) (UniProt P07900). The assay is described as above.

Results are given in words; binding and its absence hold for the method and conditions named. For some of these results: Binding seen in cells or lysates may run through a third protein. Some binding calls cover weakened binding; strength is not graded here.

Turning to “HA-tagged Hsp90 (human Hsp90α), wild-type (from UniProt P07900 1-732)”, the binding entry in [1], in [2] and in assay [3] was “binds” each time.
With “HA-tagged Hsp90-D93A (from UniProt P07900 1-732)”, the binding result is on record as “binds” in assay [1] and “no binding” in assay [2].
For “HA-tagged Hsp90-V411E (from UniProt P07900 1-732)”, the binding result in assay [1] is “no binding”.
On the same count and under the same terms, the result for “HA-tagged Hsp90-W320A (from UniProt P07900 1-732)” reads “binds”.
Regarding “HA-tagged Hsp90-Y313E (from UniProt P07900 1-732)”, the binding entry in assay [1], in assay [2] and in [3] was “binds” throughout.
For “HA-tagged Hsp90-Y313F (from UniProt P07900 1-732)”, the binding result in [2] and in assay [3] was “binds” in each case.
Take “endogenous Aha1 (from UniProt O95433 1-338)”: the binding result is listed as “binds” in assay [4]; “binds” in assay [5]; “binds” in assay [6]; “no binding” in [7]; “binds” in [8]; “binds” in [9]. In addition, the binding entry in assay [10], in assay [11], in assay [12] and in assay [13] was “binds” in each case.
With “endogenous Hsp90 (wild-type) (from UniProt P07900 1-732)”, the binding result in [14], in [15], in assay [16] and in [17] was “binds” each time.
“purified Aha1-C (from UniProt O95433 201-338) (domain or fragment)”: the binding result in [18], in [19], in [20], in assay [21] and in assay [22] was “binds” throughout.
As to “purified Aha1-N (from UniProt O95433 1-162) (domain or fragment)”, the binding entry in assay [18], in [19], in assay [20], in assay [21], in assay [23] and in [22] was “binds” each time.
